Results published in the supplement of paper PMC10849652.
This is one part of the list.

By UniProt entry, the sequences of proteins in these tests, tags left out. Where a name states a change or a piece, a line headed by the entry shows the natural chain unless it says otherwise.
UniProt Q9BRT6: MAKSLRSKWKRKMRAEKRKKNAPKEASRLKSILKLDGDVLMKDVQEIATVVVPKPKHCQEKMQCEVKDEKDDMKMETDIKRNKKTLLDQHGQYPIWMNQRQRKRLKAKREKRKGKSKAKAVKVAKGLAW
UniProt Q9UIC8: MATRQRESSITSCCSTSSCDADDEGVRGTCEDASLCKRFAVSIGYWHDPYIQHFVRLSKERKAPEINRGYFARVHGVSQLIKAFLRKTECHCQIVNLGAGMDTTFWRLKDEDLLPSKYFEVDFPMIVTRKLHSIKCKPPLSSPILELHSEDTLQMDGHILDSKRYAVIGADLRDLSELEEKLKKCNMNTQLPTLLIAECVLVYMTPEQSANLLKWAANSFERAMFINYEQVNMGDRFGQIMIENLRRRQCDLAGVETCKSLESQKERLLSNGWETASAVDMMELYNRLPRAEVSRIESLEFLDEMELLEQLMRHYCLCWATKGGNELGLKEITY
UniProt Q9UHB6: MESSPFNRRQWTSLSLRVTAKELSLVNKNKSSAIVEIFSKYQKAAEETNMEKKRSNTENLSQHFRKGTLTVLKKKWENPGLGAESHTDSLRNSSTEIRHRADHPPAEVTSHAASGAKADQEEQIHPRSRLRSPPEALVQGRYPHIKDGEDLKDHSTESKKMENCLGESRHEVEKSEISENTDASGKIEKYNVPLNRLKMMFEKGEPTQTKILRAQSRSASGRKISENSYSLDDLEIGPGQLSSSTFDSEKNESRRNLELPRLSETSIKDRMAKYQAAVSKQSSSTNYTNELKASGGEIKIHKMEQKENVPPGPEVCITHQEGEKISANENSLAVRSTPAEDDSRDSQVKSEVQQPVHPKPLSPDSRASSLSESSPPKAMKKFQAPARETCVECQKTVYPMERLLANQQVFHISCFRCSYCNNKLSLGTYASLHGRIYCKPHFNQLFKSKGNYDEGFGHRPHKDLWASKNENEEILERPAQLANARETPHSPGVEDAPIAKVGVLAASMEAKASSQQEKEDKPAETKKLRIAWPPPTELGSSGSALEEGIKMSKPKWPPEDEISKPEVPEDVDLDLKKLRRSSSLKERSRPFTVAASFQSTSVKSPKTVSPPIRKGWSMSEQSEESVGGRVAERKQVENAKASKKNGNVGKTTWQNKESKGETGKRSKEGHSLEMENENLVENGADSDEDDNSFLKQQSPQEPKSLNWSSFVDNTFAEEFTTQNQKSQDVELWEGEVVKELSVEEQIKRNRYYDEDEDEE
UniProt Q6P9F7: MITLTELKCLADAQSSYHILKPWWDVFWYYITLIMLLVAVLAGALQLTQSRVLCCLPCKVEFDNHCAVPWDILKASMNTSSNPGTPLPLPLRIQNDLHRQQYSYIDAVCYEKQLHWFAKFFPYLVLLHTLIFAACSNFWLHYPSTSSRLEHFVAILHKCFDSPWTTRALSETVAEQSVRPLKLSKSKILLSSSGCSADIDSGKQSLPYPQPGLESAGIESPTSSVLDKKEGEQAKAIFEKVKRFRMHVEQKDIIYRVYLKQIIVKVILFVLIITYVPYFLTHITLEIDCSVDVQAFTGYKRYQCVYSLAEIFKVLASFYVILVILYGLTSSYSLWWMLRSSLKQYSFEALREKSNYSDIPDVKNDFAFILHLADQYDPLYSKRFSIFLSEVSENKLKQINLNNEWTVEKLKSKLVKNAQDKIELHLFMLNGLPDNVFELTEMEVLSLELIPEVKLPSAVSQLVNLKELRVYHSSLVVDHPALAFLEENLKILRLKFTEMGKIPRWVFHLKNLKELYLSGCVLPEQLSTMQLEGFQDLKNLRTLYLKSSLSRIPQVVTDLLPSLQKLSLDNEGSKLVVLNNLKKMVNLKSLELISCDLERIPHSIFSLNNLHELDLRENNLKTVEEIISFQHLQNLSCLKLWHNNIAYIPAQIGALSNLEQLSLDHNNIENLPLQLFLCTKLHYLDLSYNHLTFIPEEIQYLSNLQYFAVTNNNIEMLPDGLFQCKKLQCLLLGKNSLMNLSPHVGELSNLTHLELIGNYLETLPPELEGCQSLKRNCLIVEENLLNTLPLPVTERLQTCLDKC
UniProt O75427: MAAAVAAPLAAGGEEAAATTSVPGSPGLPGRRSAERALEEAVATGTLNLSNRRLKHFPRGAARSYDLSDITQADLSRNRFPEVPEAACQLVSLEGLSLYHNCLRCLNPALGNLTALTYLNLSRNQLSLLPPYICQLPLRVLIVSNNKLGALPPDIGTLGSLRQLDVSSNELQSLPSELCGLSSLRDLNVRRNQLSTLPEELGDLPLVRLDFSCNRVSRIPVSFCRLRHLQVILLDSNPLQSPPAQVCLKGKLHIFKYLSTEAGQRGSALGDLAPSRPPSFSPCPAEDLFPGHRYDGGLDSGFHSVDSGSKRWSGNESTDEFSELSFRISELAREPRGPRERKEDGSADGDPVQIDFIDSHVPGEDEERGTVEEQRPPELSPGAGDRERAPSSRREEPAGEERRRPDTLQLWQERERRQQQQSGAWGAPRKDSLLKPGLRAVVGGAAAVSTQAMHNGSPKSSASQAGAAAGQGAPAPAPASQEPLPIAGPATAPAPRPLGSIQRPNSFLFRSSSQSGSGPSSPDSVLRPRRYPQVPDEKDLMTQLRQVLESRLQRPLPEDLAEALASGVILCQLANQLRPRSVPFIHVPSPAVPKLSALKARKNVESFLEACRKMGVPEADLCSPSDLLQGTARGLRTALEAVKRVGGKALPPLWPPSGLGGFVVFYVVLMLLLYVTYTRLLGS
UniProt Q9UIQ6, whole entry, looked up: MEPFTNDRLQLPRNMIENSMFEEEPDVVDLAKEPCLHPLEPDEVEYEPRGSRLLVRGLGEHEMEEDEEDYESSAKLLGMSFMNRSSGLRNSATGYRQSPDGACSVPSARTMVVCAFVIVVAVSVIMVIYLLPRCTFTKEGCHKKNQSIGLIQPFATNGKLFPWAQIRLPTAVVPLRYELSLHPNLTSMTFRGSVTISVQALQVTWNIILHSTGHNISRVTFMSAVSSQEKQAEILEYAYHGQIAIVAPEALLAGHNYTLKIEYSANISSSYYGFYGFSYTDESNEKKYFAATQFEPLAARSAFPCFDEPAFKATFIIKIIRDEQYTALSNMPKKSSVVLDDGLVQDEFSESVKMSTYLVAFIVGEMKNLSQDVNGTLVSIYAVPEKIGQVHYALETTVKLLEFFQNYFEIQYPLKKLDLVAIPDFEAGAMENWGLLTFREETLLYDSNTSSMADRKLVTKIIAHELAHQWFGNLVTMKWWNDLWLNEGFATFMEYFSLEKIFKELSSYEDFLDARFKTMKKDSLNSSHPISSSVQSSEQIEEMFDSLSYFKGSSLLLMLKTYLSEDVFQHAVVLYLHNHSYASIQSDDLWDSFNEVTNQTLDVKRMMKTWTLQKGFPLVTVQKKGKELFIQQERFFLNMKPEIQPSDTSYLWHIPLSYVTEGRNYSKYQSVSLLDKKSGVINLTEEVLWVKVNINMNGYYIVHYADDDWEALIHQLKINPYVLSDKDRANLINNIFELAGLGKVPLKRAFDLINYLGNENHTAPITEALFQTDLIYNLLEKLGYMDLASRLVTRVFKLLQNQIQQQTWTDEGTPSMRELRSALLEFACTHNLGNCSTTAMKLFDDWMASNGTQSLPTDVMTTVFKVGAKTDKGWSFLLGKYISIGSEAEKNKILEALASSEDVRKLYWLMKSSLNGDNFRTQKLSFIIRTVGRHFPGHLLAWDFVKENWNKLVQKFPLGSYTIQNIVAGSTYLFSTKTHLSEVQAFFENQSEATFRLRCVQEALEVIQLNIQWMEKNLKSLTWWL
UniProt P53671: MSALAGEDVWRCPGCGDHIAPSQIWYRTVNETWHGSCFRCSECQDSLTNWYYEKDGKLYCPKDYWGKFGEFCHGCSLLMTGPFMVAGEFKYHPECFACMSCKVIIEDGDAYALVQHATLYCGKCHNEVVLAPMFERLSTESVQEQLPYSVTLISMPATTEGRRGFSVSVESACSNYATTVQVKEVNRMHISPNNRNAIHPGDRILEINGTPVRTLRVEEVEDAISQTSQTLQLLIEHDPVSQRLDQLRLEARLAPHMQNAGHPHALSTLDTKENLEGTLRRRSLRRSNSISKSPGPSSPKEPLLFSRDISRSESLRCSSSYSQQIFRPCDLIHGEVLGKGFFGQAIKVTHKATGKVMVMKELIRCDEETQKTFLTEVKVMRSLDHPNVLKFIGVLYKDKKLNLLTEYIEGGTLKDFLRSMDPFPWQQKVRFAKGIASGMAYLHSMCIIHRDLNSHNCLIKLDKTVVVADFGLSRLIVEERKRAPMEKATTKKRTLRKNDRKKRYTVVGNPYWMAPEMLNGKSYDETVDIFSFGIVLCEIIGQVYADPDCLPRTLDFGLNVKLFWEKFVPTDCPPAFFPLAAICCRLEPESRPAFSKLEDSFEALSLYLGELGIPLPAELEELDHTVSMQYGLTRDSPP
UniProt Q9C0E8: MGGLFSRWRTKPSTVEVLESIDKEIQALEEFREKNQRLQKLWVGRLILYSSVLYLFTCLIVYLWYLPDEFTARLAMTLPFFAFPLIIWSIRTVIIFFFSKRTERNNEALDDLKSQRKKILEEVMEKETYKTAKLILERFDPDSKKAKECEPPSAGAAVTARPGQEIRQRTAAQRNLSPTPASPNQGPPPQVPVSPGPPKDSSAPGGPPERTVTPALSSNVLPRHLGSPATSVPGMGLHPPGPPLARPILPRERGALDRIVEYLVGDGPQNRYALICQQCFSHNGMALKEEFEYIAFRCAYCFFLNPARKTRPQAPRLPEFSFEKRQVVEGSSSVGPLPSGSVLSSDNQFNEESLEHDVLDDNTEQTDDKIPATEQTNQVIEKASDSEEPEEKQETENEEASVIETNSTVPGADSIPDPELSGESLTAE
UniProt Q96GY3: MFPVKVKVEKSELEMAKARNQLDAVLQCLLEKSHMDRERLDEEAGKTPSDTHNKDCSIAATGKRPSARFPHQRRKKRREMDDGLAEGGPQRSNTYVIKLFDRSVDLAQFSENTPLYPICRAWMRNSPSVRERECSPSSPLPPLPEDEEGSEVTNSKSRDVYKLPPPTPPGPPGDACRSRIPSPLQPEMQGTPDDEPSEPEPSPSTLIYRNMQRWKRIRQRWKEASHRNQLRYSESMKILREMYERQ
UniProt Q9UFC0: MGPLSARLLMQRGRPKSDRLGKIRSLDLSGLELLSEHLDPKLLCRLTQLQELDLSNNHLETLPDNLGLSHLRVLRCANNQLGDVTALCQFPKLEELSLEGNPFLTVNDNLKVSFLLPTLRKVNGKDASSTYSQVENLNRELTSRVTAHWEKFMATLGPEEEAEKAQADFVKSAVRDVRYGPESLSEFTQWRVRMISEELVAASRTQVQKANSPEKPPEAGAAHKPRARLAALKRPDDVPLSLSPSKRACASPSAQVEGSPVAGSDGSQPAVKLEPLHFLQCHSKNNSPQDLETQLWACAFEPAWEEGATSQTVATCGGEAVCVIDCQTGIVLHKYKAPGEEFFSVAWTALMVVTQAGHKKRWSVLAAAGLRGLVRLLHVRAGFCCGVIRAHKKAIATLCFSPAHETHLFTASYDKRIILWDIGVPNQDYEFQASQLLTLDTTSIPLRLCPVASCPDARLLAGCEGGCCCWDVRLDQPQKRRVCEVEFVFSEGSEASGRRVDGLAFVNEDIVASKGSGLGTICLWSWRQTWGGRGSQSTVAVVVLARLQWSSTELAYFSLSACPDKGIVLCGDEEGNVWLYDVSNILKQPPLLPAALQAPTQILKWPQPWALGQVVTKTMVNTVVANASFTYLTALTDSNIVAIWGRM
UniProt Q96AG4: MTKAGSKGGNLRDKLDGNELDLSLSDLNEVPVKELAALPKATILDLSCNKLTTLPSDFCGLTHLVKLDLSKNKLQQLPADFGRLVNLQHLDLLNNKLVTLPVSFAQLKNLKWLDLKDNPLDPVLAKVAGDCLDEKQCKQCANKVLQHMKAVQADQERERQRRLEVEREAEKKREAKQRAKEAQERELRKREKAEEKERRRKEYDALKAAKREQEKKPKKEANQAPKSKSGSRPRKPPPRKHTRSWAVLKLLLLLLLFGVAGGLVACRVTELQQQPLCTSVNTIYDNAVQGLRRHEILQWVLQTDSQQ
UniProt Q8NF37: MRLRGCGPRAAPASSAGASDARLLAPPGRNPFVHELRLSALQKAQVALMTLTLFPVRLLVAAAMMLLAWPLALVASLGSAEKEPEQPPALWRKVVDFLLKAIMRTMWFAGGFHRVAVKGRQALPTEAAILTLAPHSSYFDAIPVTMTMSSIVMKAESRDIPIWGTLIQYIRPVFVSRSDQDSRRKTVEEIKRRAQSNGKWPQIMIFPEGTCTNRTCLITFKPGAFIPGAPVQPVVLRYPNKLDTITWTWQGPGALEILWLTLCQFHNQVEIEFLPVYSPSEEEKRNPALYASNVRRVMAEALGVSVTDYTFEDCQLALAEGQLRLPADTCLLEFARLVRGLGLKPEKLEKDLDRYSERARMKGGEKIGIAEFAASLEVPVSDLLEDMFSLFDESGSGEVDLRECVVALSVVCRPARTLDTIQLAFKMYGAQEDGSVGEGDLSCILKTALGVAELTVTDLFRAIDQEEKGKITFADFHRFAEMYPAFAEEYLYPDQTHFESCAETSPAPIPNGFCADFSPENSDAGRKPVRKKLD

Experiments:
Test in all cases: log2 fold change, soluble protein after heating vs DMSO (PISA); higher = thermal stabilisation; K562 lysate, 10 uM; active = over 0.2 and 3.5 SD of the protein, either way, in both replicates (recomputed)
[1] = compound: C=CC(=O)N1CCC[C@@H](n2nc(-c3ccc(Oc4ccccc4)cc3)c3c(N)ncnc32)C1 [ibrutinib]
Procedure, shortened: (§1)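 To prepare the extract, K562 pellets were dounce-homogenised in PBS pH 7.4 with 1 mM MgCl2, giving crude material at 1 mg/mL protein. This was treated with 10 μM compound for 30 min, then heated in aliquots for 3 min over 48°C-58°C before pooling and addition of NP-40 to 0.5% at 4°C. Centrifugation at 21,000xg for 90 min left soluble protein in the supernatant, which TMTpro 16plex LC-MS/MS quantified with equalised channel sums. Results are log-two fold changes in thermal stability compared with solvent controls, from duplicates.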

[2] = compound: CC(=O)c1cnc2ccc(-c3cc(Cl)c(O)c(Cl)c3)nc2c1N[C@H]1CC[C@H](CN(C)C)CC1
Procedure, shortened: as §1

[3] = compound: CC(C)(C)Cn1c(N)nc2ccc(-c3[nH]c(C(C)(C)C)nc3-c3ccc(F)cc3)nc21 [ralimetinib]
Procedure, shortened: as §1

[4] = compound: CC(C)(O)CC(=O)NCCn1ccc2ncnc(Nc3ccc(Oc4cccc(C(F)(F)F)c4)c(Cl)c3)c21
Procedure, shortened: as §1

[5] = compound: CC(C)C1=C2N=C(C=C(N2N=C1)NCC3=CC=CC=C3)NCCCCCCN
Procedure, shortened: as §1

[6] = compound: CC1=C(C(CC(=O)N1)C2=CC=C(C=C2)C(F)(F)F)C(=O)NC3=C(C=C4C(=C3)C=NN4)F
Procedure, shortened: as §1

[7] = compound: CC1=C(C2=C(C=C1)C(=O)C3=CC=CC=C3N2CCCN)C
Procedure, shortened: as §1

[8] = compound: CC1=C(C=C(C=C1)NC(=O)C2=CC(=CC=C2)C(C)(C)C#N)NC3=CC4=C(C=C3)N=CN(C4=O)C
Procedure, shortened: as §1

[9] = compound: CC1=C(C=C(C=C1)NC(=O)C2=CC(=CC=C2)N(C)C)NC(=O)C3=CC=C(C=C3)O
Procedure, shortened: as §1

[10] = compound: CC1=CC=C(C=C1)SC2=C3C=C(SC3=CN=C2)C(=O)N
Procedure, shortened: as §1

[11] = compound: CCCS(=O)(=O)Nc1ccc(F)c(C(=O)c2c[nH]c3ncc(-c4ccc(Cl)cc4)cc23)c1F [vemurafenib]
Procedure, shortened: as §1

[12] = compound: CCCS(=O)(=O)Nc1ccc(F)c(C(=O)c2c[nH]c3ncc(Cl)cc23)c1F
Procedure, shortened: as §1

[13] = compound: CCN(CCCOc1ccc2c(Nc3cc(CC(=O)Nc4cccc(F)c4)[nH]n3)ncnc2c1)CCOP(=O)(O)O [barasertib]
Procedure, shortened: as §1

[14] = compound: CC[C@@H]1C(=O)N(C)c2cnc(Nc3ccc(C(=O)NC4CCN(C)CC4)cc3OC)nc2N1C1CCCC1
Procedure, shortened: as §1

[15] = compound: CC[C@@H]1C(=O)N(C)c2cnc(Nc3ccc(C(=O)N[C@H]4CC[C@H](N5CCN(CC6CC6)CC5)CC4)cc3OC)nc2N1C(C)C [volasertib]
Procedure, shortened: as §1

[16] = compound: CCn1c(C(=O)N(C2CC2)C2CC2)cc2c3c(ncn3C)c(Nc3cc(C)n(C)n3)nc21
Procedure, shortened: as §1

[17] = compound: CCn1cc(-c2ccnc3[nH]c(-c4cccc(CN(C)C)c4)cc23)c(-c2ccc(NC(=O)N(C)C)cc2)n1
Procedure, shortened: as §1

[18] = compound: CN1CCC(CNc2ccc3ncc(-c4cccc(OC(F)(F)F)c4)n3n2)CC1
Procedure, shortened: as §1

[19] = compound: CN1CCN(CCOc2cc(OC3CCOCC3)c3c(Nc4c(Cl)ccc5c4OCO5)ncnc3c2)CC1 [saracatinib]
Procedure, shortened: as §1

[20] = compound: CN1CCN(c2nc(C3=C(c4c[nH]c5ccccc45)C(=O)NC3=O)c3ccccc3n2)CC1 [sotrastaurin]
Procedure, shortened: as §1

Measured: log2 fold change

LIG3 (UniProt P49916)
inactive: [1] -0.006 | [2] 0.007 | [3] 0.063 | [4] 0.023 | [5] -0.002 | [6] -0.018 | [7] 0.04 | [8] -0.015 | [9] 0.028 | [10] 0.015 | [11] -0.029 | [12] -0.003 | [13] 0.019 | [14] -0.127 | [15] -0.028 | [16] 0.031 | [17] -0.033 | [18] -0.011 | [19] 0.018 | [20] 0.009

LMAN1 (UniProt P49257)
inactive: [1] -0.02 | [2] -0.038 | [3] -0.015 | [4] -0.036 | [5] -0.012 | [6] 0.01 | [7] -0.037 | [8] -0.001 | [9] 0.022 | [10] -0.029 | [11] 0.009 | [12] -0.011 | [13] -0.011 | [14] 0.055 | [15] 0.008 | [16] 0.018 | [17] 0.107 | [18] -0.044 | [19] -0.01 | [20] 0.055

LLPH (UniProt Q9BRT6)
inactive: [1] 0.068 | [2] 0.024 | [3] -0.002 | [4] 0.053 | [5] -0.011 | [6] 0.062 | [7] 0.009 | [8] -0.072 | [9] -0.026 | [10] -0.001 | [11] -0.035 | [12] 0.032 | [13] -0.073 | [14] 0.024 | [15] 0.01 | [16] -0.02 | [17] 0.231 | [18] -0.082 | [19] 0.035 | [20] 0.025

LCMT1 (UniProt Q9UIC8)
inactive: [1] 0.004 | [2] 0.021 | [3] 0.054 | [4] 0.006 | [5] -0.017 | [6] -0.01 | [7] 0.034 | [8] 0.011 | [9] 0.012 | [10] -0.002 | [11] -0.054 | [12] -0.002 | [13] -0.006 | [14] 0.026 | [15] 0.003 | [16] -0.021 | [17] 0.065 | [18] -0.023 | [19] -0.017 | [20] -0.033

LIMA1 isoform 4 (UniProt Q9UHB6)
inactive: [1] 0 | [2] 0.01 | [3] -0.01 | [4] -0.042 | [5] 0 | [6] -0.018 | [7] -0.04 | [8] -0.006 | [9] 0.01 | [10] -0.007 | [11] 0.011 | [12] 0.021 | [13] 0.012 | [14] 0.052 | [15] 0.003 | [16] -0.037 | [17] 0.048 | [18] -0.044 | [19] 0.012 | [20] -0.021

LRRC8B (UniProt Q6P9F7)
inactive: [1] 0.138 | [2] 0.182 | [3] -0.032 | [4] -0.037 | [5] -0.099 | [6] -0.091 | [7] 0.059 | [8] -0.083 | [9] -0.002 | [10] -0.146 | [11] 0.011 | [12] 0.029 | [13] -0.155 | [14] -0.191 | [15] -0.17 | [16] 0.004 | [17] -0.037 | [18] 0.193 | [19] 0.229 | [20] -0.017

LRCH4 (UniProt O75427)
inactive: [1] -0.088 | [2] -0.028 | [3] -0.005 | [4] -0.015 | [5] 0.072 | [6] -0.102 | [7] 0.041 | [8] 0.03 | [9] 0.137 | [10] -0.048 | [11] 0.024 | [12] 0.05 | [13] -0.064 | [14] 0.045 | [15] -0.008 | [16] -0.082 | [17] 0.239 | [18] 0.059 | [19] 0.044 | [20] -0.009

LNPEP (UniProt Q9UIQ6)
inactive: [1] 0.016 | [2] -0.044 | [3] 0.024 | [4] 0.002 | [5] -0.015 | [6] -0.004 | [7] -0.002 | [8] 0.022 | [9] 0.003 | [10] -0.055 | [11] -0.018 | [12] 0.013 | [13] -0.004 | [14] 0.021 | [15] 0.024 | [16] -0.023 | [17] -0.082 | [18] 0.049 | [19] 0.025 | [20] 0.029

LIMK2 isoform 3 (UniProt P53671)
active: [17] 0.963
inactive: [1] 0.129 | [2] 0.003 | [3] 0 | [4] 0.018 | [5] 0.008 | [6] -0.03 | [7] -0.005 | [8] 0.175 | [9] 0.013 | [10] -0.073 | [11] 0.031 | [12] 0.046 | [13] -0.062 | [14] -0.173 | [15] -0.002 | [16] -0.046 | [18] 0.023 | [19] -0.017 | [20] -0.05

LPCAT3 (UniProt Q6P1A2)
inactive: [1] -0.009 | [2] -0.005 | [3] 0.062 | [4] -0.153 | [5] -0.073 | [6] -0.007 | [7] 0.015 | [8] 0.371 | [9] -0.035 | [10] -0.022 | [11] -0.178 | [12] 0.016 | [13] 0.104 | [14] 0.104 | [15] 0.041 | [16] 0.128 | [17] -0.081 | [18] -0.112 | [19] -0.035 | [20] 0.167

LRBA, A0A494BZW2
inactive: [1] -0.002 | [2] 0.054 | [3] 0.014 | [4] -0.06 | [5] 0.307 | [6] 0.087 | [7] -0.061 | [8] 0.281 | [9] -0.025 | [10] -0.044 | [11] 0.068 | [12] 0.008 | [13] 0.059 | [14] -0.026 | [15] 0.062 | [16] -0.232 | [17] -0.034 | [18] 0.06 | [19] 0.068 | [20] 0.154

LNPK (UniProt Q9C0E8)
inactive: [1] -0.033 | [2] 0 | [3] -0.008 | [4] 0.04 | [5] 0.007 | [6] 0.023 | [7] -0.013 | [8] -0.001 | [9] -0.018 | [10] -0.016 | [11] -0.012 | [12] -0.038 | [13] -0.025 | [14] 0.066 | [15] 0.011 | [16] 0.036 | [17] -0.204 | [18] 0.042 | [19] 0.023 | [20] 0.005

LIN37 (UniProt Q96GY3)
inactive: [1] -0.042 | [2] 0.045 | [3] -0.094 | [4] 0.089 | [5] 0 | [6] 0.067 | [7] -0.114 | [8] 0.065 | [9] 0.036 | [10] -0.094 | [11] 0.179 | [12] -0.101 | [13] 0.019 | [14] 0.069 | [15] 0.031 | [16] 0.155 | [17] -0.079 | [18] 0.113 | [19] 0.041 | [20] -0.034

LRWD1 (UniProt Q9UFC0)
inactive: [1] 0.082 | [2] -0.009 | [3] 0.004 | [4] 0 | [5] 0.035 | [6] 0.015 | [7] -0.004 | [8] 0 | [9] 0.032 | [10] 0.04 | [11] 0.009 | [12] -0.013 | [13] -0.021 | [14] -0.016 | [15] -0.017 | [16] 0.023 | [17] -0.003 | [18] 0.036 | [19] 0.025 | [20] 0.03

LRRC59 (UniProt Q96AG4)
inactive: [1] -0.013 | [2] -0.002 | [3] -0.064 | [4] -0.011 | [5] 0.019 | [6] -0.04 | [7] 0.014 | [8] 0.017 | [9] -0.054 | [10] 0.008 | [11] 0.016 | [12] 0.003 | [13] -0.007 | [14] 0.008 | [15] -0.004 | [16] -0.013 | [17] 0.072 | [18] -0.011 | [19] -0.02 | [20] -0.057

LPCAT1 (UniProt Q8NF37)
active: [17] -0.39
inactive: [1] 0.175 | [2] -0.021 | [3] 0 | [4] -0.142 | [5] -0.036 | [6] 0.066 | [7] -0.011 | [8] 0.003 | [9] -0.016 | [10] -0.019 | [11] -0.009 | [12] 0.07 | [13] 0.012 | [14] 0.037 | [15] 0.097 | [16] -0.072 | [18] 0.099 | [19] 0.079 | [20] 0.032

2 records drawn at random from the list so far, as already listed:
LNPK (UniProt Q9C0E8)
inactive: [1] -0.033 | [2] 0 | [3] -0.008 | [4] 0.04 | [5] 0.007 | [6] 0.023 | [7] -0.013 | [8] -0.001 | [9] -0.018 | [10] -0.016 | [11] -0.012 | [12] -0.038 | [13] -0.025 | [14] 0.066 | [15] 0.011 | [16] 0.036 | [17] -0.204 | [18] 0.042 | [19] 0.023 | [20] 0.005

LPCAT3 (UniProt Q6P1A2)
inactive: [1] -0.009 | [2] -0.005 | [3] 0.062 | [4] -0.153 | [5] -0.073 | [6] -0.007 | [7] 0.015 | [8] 0.371 | [9] -0.035 | [10] -0.022 | [11] -0.178 | [12] 0.016 | [13] 0.104 | [14] 0.104 | [15] 0.041 | [16] 0.128 | [17] -0.081 | [18] -0.112 | [19] -0.035 | [20] 0.167
